According to publication PMC10988762, “Inhibition of malaria and babesiosis parasites by putative red blood cell targeting small molecules” (Frontiers in Cellular and Infection Microbiology, 2024):
Where a name gives a salt, the structure may show the parent alone.

Assays:
P. knowlesi YH1 strain = test: microbe, parasite or virus in culture; assay type: cell-based; conditions: Plasmodium knowlesi, 48 h, read-out: IC50 (S.D.), P. knowlesi
Source text: (§1) The P. falciparum strains 3D7 and Dd2 were obtained from the Walter and Eliza Hall Institute (Melbourne, Australia) and the Malaria Research and Reference Reagent Resource, respectively. The P. knowlesi YH1 strain adapted for growth in human erythrocytes and the BdC9 line of B. divergens were previously reported ([Lim et al., 2013]; [Rezvani et al., 2022]). All parasite lines were maintained in continuous culture in human erythrocytes O+ purchased from a commercial source (Research Blood Components, Boston USA) in RPMI-1640 medium as described (eg [Rezvani et al., 2022]), typically at 2%-hematocrit. Plasmodium parasites were synchronized using sorbitol (5% [wt/vol] for both P. falciparum and P. knowlesi; for P. knowlesi, with addition of 20 mM Na-HEPES and 0.1 mg/ml BSA) ([Lambros and Vanderberg, 1979]) at least once in the week prior to assays. […]
(§2) We carried out dose-response assays in 384-well plates (40 µl assay volume) for measurement with SYBR-Green I dye ([Mandt et al., 2019]), with test compounds pre-printed into wells via use of a D300 Digital Dispenser (Hewlett-Packard). […] To quantify the species-specificity of the inhibitors, we divided the range of IC50s across the 4 test lines by the average IC50 across the same lines: inhibitors with increased scores show species-specific activity and reduced scores indicate broad-spectrum, pan-species activity.

P. falciparum strain Dd2 = test: Inhibitor susceptibility dose-response assay (SYBR-Green I), P. falciparum Dd2; assay type: cell-based; conditions: Plasmodium falciparum, 72h, ring-stage, n=3 experiments (or 2 where indicated with *), read-out: IC50 (S.D.), P. falciparum-Dd2
Source text: as §1, §2

[1] = tested on: BdC9 line of B. divergens; test: Inhibitor susceptibility dose-response assay (SYBR-Green I), B. divergens; assay type: cell-based; conditions: Babesia divergens; 72h, asynchronous; n=3 experiments (or 2 where indicated with *); read-out: IC50 (S.D.), B. divergens
Source text: as §1, §2

Band 3 phosphorylation = conditions: read-out: Micromolar IC50 (RBC), Band 3 phosphorylation; RBC assay: Band 3 phosphorylation ref PMID 27768734; cited from earlier work

What does the source list for `Cc1ccc(NC(=O)c2ccc(CN3CCN(C)CC3)cc2)cc1Nc1nccc(-c2cccnc2)n1` [Imatinib mesylate]?
IC50 (P. knowlesi YH1 strain): 4 µM; IC50 (P. falciparum strain Dd2): 5.7 µM; IC50 [1]: 20 µM; IC50 (Band 3 phosphorylation): < 5 µM
